Reference: article PMC11223080
No constants are given. Whether binding was seen depends on the method and setting. Binding seen in cells or lysates may run through a third protein.

Protein sequences, listed by entry. Tags and fused reporters are not part of them. Lines headed by an entry give the natural chain unless they say otherwise; changes in a name come on top.
UniProt O54943: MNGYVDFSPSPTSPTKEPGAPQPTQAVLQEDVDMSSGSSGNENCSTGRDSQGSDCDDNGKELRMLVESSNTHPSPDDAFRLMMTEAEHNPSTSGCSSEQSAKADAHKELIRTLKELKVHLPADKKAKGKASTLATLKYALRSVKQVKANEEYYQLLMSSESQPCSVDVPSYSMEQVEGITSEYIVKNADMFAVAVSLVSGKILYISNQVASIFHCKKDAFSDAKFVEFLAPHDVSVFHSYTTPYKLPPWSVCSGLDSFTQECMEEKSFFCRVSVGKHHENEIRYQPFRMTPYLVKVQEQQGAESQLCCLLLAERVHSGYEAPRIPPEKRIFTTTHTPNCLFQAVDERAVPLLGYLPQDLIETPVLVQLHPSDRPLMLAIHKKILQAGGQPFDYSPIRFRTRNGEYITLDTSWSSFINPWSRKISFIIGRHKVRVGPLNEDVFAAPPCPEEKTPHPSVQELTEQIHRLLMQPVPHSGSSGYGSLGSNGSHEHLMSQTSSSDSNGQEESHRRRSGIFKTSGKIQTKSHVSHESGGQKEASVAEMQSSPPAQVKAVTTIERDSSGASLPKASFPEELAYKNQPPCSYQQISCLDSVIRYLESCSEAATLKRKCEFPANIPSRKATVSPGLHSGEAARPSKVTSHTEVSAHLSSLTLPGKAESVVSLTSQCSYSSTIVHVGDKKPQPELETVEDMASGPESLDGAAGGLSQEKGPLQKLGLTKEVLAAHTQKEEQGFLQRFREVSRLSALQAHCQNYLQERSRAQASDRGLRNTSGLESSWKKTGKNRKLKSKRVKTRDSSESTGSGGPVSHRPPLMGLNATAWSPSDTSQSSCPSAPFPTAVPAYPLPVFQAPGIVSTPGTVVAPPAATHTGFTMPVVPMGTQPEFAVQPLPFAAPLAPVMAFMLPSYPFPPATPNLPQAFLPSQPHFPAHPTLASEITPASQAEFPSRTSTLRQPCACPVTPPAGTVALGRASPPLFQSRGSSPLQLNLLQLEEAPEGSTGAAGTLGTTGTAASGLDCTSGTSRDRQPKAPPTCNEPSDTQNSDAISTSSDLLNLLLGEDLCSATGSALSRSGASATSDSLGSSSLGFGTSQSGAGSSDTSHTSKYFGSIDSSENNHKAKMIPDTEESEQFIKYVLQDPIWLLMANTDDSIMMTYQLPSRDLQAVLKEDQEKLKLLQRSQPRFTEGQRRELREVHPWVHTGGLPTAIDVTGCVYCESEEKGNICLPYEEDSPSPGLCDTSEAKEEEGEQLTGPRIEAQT
UniProt P49674: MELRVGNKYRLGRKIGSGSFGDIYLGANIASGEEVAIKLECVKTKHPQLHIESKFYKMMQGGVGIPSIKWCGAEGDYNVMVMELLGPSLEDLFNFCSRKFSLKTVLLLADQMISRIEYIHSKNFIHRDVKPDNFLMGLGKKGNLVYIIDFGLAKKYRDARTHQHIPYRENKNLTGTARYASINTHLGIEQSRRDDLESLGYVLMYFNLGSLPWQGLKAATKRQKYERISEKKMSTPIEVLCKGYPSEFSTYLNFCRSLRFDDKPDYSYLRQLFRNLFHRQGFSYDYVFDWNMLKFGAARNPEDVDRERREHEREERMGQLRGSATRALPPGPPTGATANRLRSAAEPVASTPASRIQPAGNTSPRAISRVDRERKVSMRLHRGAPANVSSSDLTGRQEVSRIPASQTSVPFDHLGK

Biological target: mouse PER2 with mutated CK1-binding domain B (Bd mut PER2) (mouse) (UniProt O54943)
Assay: co-IP; PER1 or PER2 immunoprecipitated from 75 ug of lysate of transfected HEK293 cells with antibody on Protein G Dynabeads, 30 min at room temperature, washed thrice with PBS-T (0.1% tween-20); immunoblot for CK1ε

**Q.** How did the binding turn out when “casein kinase 1ε (CK1ε) (from UniProt P49674 1-416) (enzyme)” was run?
**A.** no binding
